PubChem BioAssay AID743121 – NCATS | 2013
Here is one part, drawn at random, of about 26,000 reagents. 167 of them (0.63%) were called active. 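Calls are per gene from RSA p-values that are not deposited; an individual active-marked siRNA can sensitise only weakly.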 The numbers tell different reagents against one gene apart.

Purpose: 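Genes whose silencing strengthens cell killing by camptothecin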 (primary screen)
Cell system: MDA-MB-231 cells, a human breast cancer line
Reagent: single siRNA against human genes, 20 nM siRNA (0.8 pmol per well)
Time to read-out: 120 h (drug added 48 h after transfection, read 72 h later)
Conditions: camptothecin 20 nM (about EC30) for 72 h; vehicle 0.1% DMSO in parallel plates
Measurement: 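Cell viability by ATP luminescence (CellTiter-Glo) as % of non-targeting siRNA wells, and the log2 ratio of viability without drug over viability with camptothecin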
Scale: log2 vehicle/camptothecin viability: higher = stronger sensitisation to camptothecin; viability with camptothecin and viability without drug: higher = more viable cells
Active means: 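Each gene scored by redundant siRNA activity (RSA) over its individual siRNA ratios; a gene is called active at p < 0.001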

log2 vehicle/camptothecin viability,viability with camptothecin (% of control),viability without drug (% of control),Call,Target gene,siRNA no.
-0.107,74.4,69.1,inactive,CASK (calcium/calmodulin dependent serine protein kinase),1
-0.129,68.5,62.6,inactive,CASK (calcium/calmodulin dependent serine protein kinase),2
0.166,66.5,74.6,inactive,CASK (calcium/calmodulin dependent serine protein kinase),3
0.896,4.15,7.73,inactive,CASK (calcium/calmodulin dependent serine protein kinase),4
0.488,48.6,68.2,inactive,SLC7A7,1
-0.0395,95.2,92.6,inactive,SLC7A7,2
-0.0759,52.2,49.6,inactive,SLC7A7,3
-0.257,94.3,78.9,inactive,COQ8B (coenzyme Q8B),1
-0.301,75.7,61.4,inactive,COQ8B (coenzyme Q8B),2
-0.327,105,83.4,inactive,COQ8B (coenzyme Q8B),3
-0.184,82.1,72.2,inactive,COQ8B (coenzyme Q8B),4
-0.107,72.8,67.6,inactive,GNAT1 (G protein subunit alpha transducin 1),1
-0.131,83.6,76.4,inactive,GNAT1 (G protein subunit alpha transducin 1),2
-0.858,118,64.9,inactive,GNAT1 (G protein subunit alpha transducin 1),3
0.0113,79,79.6,inactive,GNAT1 (G protein subunit alpha transducin 1),4
0.0922,86,91.7,inactive,ASIC5 (acid sensing ion channel subunit family member 5),1
0.0464,77.1,79.7,inactive,ASIC5 (acid sensing ion channel subunit family member 5),2
-0.123,116,107,inactive,ASIC5 (acid sensing ion channel subunit family member 5),3
-0.184,100,88.4,inactive,ASIC5 (acid sensing ion channel subunit family member 5),4
-0.126,101,92.3,inactive,TRAF7 (TNF receptor associated factor 7),1
-0.438,53,39.1,inactive,TRAF7 (TNF receptor associated factor 7),2
0.0835,96.9,103,inactive,TRAF7 (TNF receptor associated factor 7),3
0.049,28.2,29.2,inactive,TRAF7 (TNF receptor associated factor 7),4
0.0901,85.9,91.4,inactive,CXCL14 (C-X-C motif chemokine ligand 14),1
-0.0871,94.3,88.7,inactive,CXCL14 (C-X-C motif chemokine ligand 14),2
0.154,81.1,90.3,inactive,CXCL14 (C-X-C motif chemokine ligand 14),3
-0.234,126,107,inactive,STK24 (serine/threonine kinase 24),1
-0.172,86.7,76.9,inactive,STK24 (serine/threonine kinase 24),2
-0.342,88.8,70,inactive,STK24 (serine/threonine kinase 24),3
-0.284,101,82.6,inactive,STK24 (serine/threonine kinase 24),4

7 of these entries, set out differently:
| log2 vehicle/camptothecin viability | viability with camptothecin (% of control) | viability without drug (% of control) | Call | Target gene | siRNA no. |
| --- | --- | --- | --- | --- | --- |
| 0.896 | 4.15 | 7.73 | inactive | CASK (calcium/calmodulin dependent serine protein kinase) | 4 |
| 0.488 | 48.6 | 68.2 | inactive | SLC7A7 | 1 |
| -0.0395 | 95.2 | 92.6 | inactive | SLC7A7 | 2 |
| -0.0759 | 52.2 | 49.6 | inactive | SLC7A7 | 3 |
| -0.257 | 94.3 | 78.9 | inactive | COQ8B (coenzyme Q8B) | 1 |
| -0.301 | 75.7 | 61.4 | inactive | COQ8B (coenzyme Q8B) | 2 |
| -0.327 | 105 | 83.4 | inactive | COQ8B (coenzyme Q8B) | 3 |

The listing continues.
log2 vehicle/camptothecin viability,viability with camptothecin (% of control),viability without drug (% of control),Call,Target gene,siRNA no.
-0.32,51.3,41.1,inactive,CDKN2D (cyclin dependent kinase inhibitor 2D),1
-0.0283,110,108,inactive,CDKN2D (cyclin dependent kinase inhibitor 2D),2
0.166,73.9,82.8,inactive,CDKN2D (cyclin dependent kinase inhibitor 2D),3
0.78,33,56.6,inactive,CDKN2D (cyclin dependent kinase inhibitor 2D),4
0.297,32,39.4,inactive,CA5BP1 (carbonic anhydrase 5B pseudogene 1),1
0.188,69.7,79.4,inactive,CA5BP1 (carbonic anhydrase 5B pseudogene 1),2
0.123,38.5,41.9,inactive,"ADGRE4P (adhesion G protein-coupled receptor E4, pseudogene)",1
0.0741,43.9,46.2,inactive,"ADGRE4P (adhesion G protein-coupled receptor E4, pseudogene)",2
-0.666,71.8,45.2,inactive,"ADGRE4P (adhesion G protein-coupled receptor E4, pseudogene)",3
-0.424,108,80.8,inactive,"ADGRE4P (adhesion G protein-coupled receptor E4, pseudogene)",4
0.146,76.6,84.8,inactive,TLR8 (toll like receptor 8),1
0.625,73.8,114,inactive,TLR8 (toll like receptor 8),2
-0.452,51.3,37.5,inactive,TLR8 (toll like receptor 8),3
0.186,51.4,58.4,inactive,TLR8 (toll like receptor 8),4
-0.358,89,69.5,inactive,GPC3 (glypican 3),1
-0.0241,83,81.6,inactive,GPC3 (glypican 3),2
0.418,82.7,111,inactive,GPC3 (glypican 3),3
-0.316,98.4,79,inactive,GPC3 (glypican 3),4
